In US20240300968A1, “6-SUBSTITUTED NAPHTHALENE-1,3-DISULFONIC ACID DERIVATIVES AS MODULATORS OF THE EXTRACELLULAR NICOTINAMIDE PHOSPHORIBOSYL TRANSFERASE (ENAMPT) FOR THE TREATMENT OF E.G. DIABETES” (The University of Manchester, priority 2021, published 2024):
At least one compound was matched to its structure with a doubt left.

Protein sequences, listed by entry. Tags and fused reporters are not part of them.
UniProt P43490, whole entry, species assumed: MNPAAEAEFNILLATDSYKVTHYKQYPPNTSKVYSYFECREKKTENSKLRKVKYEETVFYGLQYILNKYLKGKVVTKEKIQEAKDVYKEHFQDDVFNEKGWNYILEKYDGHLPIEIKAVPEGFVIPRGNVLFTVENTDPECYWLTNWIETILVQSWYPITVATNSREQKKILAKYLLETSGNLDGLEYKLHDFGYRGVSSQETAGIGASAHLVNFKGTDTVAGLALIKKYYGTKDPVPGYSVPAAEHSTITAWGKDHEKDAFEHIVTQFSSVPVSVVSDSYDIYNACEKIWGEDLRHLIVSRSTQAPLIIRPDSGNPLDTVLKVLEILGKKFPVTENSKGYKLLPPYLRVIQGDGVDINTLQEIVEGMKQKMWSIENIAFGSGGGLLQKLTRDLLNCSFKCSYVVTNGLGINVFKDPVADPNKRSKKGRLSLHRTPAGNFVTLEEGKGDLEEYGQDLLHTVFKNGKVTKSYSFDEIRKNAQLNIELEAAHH

Biological target: NAMPT (Homo sapiens (Human), UniProt P43490)
Assay: Native mass spectrometry of NAMPT incubated with compound
Format: binding
Conditions: NAMPT 5 μmol/l with compound 5 μmol/l, 12 hours

In the case of `O=C(NCc1ccc(F)c(-c2ccc3cc(S(=O)(=O)O)cc(S(=O)(=O)O)c3c2)c1)Nc1ccc(S(=O)(=O)N2CCCCC2)cc1` [Example 1, 6-(2-fluoro-5-((3-(4-(piperidin-1-ylsulfonyl)phenyl)ureido)methyl)phenyl)-4-(trioxidaneylthio)naphthalene-2-sulfonic acid], the “major peaks for NAMPT monomer in native mass spectrum” value is reported as “absent” and the “complex between NAMPT and compound in native mass spectrum” value (m/z 6125-6500 region) is reported as “stable 2+2 complex”.
